Measured values as given in publication PMC11667820.
Results are given in words; binding and its absence hold for the method and conditions named. Binding seen in cells or lysates may run through a third protein. Some binding calls cover weakened binding; strength is not graded here.

Chains of the proteins cited; added tags and fusions are not shown.
UniProt Q9BST9: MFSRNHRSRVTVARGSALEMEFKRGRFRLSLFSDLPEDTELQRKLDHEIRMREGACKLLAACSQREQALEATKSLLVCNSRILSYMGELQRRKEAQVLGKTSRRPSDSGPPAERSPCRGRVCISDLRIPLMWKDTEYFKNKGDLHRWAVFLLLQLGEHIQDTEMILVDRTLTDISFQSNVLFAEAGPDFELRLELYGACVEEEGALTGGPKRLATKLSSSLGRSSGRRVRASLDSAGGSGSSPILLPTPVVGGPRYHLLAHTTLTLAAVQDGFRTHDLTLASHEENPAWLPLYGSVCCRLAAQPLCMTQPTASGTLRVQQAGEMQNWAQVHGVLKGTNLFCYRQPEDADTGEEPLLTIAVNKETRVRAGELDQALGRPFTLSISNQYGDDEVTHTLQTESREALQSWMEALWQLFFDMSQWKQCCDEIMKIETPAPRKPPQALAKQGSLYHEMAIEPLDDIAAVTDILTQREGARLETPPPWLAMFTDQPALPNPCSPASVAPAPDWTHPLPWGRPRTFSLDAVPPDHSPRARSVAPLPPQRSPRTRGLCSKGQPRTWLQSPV

T1: vinexin-β (human (endogenous in FaDu and SAS)) (UniProt O60504)
T1 sequence: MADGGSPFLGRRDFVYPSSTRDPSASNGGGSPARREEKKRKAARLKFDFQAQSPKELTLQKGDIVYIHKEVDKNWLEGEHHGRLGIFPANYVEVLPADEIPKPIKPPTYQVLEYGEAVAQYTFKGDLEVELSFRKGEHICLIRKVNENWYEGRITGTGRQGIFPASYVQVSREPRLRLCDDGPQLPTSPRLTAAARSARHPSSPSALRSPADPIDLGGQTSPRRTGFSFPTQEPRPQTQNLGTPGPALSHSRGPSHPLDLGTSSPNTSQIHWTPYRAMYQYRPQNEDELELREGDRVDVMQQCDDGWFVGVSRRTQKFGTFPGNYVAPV

T2: native RARγ1 (retinoic acid receptor gamma isoform 1) (human (endogenous in FaDu and SAS)) (UniProt P13631)
T2 sequence: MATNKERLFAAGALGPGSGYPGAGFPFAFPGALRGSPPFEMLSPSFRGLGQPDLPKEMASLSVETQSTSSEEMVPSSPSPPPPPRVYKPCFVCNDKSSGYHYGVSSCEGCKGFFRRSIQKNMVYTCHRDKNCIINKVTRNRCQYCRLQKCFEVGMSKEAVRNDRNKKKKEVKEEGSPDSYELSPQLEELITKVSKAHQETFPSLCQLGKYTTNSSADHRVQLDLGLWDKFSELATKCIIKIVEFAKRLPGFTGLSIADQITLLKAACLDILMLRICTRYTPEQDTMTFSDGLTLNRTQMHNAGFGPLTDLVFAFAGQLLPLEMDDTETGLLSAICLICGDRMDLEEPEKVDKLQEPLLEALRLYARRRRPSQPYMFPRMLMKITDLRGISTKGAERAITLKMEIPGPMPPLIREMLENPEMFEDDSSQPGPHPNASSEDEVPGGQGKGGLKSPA


Legend:
[1] = target: T1, vinexin-β (human (endogenous in FaDu and SAS)); assay: co-IP; anti-vinexin immunoprecipitation from lysates of SAS cells expressing RARγ4 constructs; lysis buffer 20 mM Tris-HCl pH 7.5, 150 mM NaCl, 1 mM Na2EDTA, 1 mM EGTA, 0.2% Triton, 1 mM PMSF; 4 °C overnight; protein A/G-agarose; blot for rhotekin and RARγ4
[2] = target: T2, native RARγ1 (retinoic acid receptor gamma isoform 1) (human (endogenous in FaDu and SAS)); assay: co-IP; anti-RARγ1 immunoprecipitation of native RARγ1 from lysates of FaDu and SAS cells, with or without serum starvation (up to 72 h); blot for vinexin-β

binding [1]	binding [2]	Molecule
binds	–	rhotekin (from UniProt Q9BST9 1-563)
–	binds	vinexin-β (protein, UniProt O60504-2 1-329) MADGGSPFLGRRDFVYPSSTRDPSASNGGGSPARREEKKRKAARLKFDFQAQSPKELTLQKGDIVYIHKEVDKNWLEGEHHGRLGIFPANYVEVLPADEIPKPIKPPTYQVLEYGEAVAQYTFKGDLEVELSFRKGEHICLIRKVNENWYEGRITGTGRQGIFPASYVQVSREPRLRLCDDGPQLPTSPRLTAAARSARHPSSPSALRSPADPIDLGGQTSPRRTGFSFPTQEPRPQTQNLGTPGPALSHSRGPSHPLDLGTSSPNTSQIHWTPYRAMYQYRPQNEDELELREGDRVDVMQQCDDGWFVGVSRRTQKFGTFPGNYVAPV
